# Reference: the supplement of paper PMC7666118
# Protein sequences, listed by entry. Tags and fused reporters are not part of them. Lines headed by an entry give the natural chain unless they say otherwise; changes in a name come on top.
# UniProt Q86X76: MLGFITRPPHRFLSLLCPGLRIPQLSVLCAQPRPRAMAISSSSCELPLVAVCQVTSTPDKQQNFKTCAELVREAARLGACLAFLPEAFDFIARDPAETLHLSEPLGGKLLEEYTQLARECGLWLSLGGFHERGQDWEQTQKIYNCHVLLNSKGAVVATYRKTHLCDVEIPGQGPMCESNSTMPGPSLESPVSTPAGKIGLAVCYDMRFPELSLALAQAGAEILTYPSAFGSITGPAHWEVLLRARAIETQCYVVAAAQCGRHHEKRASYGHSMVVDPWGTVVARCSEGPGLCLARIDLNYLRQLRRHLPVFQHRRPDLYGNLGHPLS
# UniProt Q32P28: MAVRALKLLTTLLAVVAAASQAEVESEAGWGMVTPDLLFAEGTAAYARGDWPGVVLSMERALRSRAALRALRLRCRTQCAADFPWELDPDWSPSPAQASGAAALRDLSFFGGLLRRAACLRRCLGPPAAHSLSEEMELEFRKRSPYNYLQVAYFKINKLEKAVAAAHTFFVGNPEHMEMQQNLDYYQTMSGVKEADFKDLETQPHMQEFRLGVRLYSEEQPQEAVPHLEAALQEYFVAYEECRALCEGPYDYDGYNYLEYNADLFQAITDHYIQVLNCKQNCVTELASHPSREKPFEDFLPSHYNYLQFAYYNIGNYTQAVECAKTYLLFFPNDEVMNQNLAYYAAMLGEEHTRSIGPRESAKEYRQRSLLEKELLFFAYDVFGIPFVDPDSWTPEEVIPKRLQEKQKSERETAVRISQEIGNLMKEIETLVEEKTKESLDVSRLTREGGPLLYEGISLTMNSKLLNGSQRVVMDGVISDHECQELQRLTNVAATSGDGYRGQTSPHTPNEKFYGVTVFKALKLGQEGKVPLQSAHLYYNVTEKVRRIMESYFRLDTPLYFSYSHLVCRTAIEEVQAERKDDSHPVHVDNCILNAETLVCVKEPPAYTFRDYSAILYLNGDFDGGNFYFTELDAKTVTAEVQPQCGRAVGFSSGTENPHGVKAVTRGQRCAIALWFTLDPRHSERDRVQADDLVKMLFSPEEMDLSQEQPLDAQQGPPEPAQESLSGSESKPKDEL
# UniProt Q96IY1: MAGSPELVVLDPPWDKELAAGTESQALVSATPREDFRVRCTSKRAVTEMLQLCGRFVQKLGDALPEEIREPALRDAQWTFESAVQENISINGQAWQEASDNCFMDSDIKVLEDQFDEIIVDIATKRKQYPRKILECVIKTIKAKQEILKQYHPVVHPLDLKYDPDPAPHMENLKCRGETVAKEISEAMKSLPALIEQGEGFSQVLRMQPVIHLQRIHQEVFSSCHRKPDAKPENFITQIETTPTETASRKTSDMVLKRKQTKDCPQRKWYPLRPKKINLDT
# UniProt P43034: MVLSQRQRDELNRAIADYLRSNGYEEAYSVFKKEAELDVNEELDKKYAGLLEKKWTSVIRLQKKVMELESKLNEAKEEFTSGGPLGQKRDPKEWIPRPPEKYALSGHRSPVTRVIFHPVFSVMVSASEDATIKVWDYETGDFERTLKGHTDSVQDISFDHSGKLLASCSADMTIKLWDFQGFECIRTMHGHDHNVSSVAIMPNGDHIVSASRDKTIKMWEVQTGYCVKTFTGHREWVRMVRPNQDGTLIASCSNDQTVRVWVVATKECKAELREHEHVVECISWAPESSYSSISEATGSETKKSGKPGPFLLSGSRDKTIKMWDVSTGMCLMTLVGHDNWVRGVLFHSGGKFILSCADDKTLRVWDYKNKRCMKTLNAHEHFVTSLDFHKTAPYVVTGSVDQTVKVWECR
# UniProt P21359: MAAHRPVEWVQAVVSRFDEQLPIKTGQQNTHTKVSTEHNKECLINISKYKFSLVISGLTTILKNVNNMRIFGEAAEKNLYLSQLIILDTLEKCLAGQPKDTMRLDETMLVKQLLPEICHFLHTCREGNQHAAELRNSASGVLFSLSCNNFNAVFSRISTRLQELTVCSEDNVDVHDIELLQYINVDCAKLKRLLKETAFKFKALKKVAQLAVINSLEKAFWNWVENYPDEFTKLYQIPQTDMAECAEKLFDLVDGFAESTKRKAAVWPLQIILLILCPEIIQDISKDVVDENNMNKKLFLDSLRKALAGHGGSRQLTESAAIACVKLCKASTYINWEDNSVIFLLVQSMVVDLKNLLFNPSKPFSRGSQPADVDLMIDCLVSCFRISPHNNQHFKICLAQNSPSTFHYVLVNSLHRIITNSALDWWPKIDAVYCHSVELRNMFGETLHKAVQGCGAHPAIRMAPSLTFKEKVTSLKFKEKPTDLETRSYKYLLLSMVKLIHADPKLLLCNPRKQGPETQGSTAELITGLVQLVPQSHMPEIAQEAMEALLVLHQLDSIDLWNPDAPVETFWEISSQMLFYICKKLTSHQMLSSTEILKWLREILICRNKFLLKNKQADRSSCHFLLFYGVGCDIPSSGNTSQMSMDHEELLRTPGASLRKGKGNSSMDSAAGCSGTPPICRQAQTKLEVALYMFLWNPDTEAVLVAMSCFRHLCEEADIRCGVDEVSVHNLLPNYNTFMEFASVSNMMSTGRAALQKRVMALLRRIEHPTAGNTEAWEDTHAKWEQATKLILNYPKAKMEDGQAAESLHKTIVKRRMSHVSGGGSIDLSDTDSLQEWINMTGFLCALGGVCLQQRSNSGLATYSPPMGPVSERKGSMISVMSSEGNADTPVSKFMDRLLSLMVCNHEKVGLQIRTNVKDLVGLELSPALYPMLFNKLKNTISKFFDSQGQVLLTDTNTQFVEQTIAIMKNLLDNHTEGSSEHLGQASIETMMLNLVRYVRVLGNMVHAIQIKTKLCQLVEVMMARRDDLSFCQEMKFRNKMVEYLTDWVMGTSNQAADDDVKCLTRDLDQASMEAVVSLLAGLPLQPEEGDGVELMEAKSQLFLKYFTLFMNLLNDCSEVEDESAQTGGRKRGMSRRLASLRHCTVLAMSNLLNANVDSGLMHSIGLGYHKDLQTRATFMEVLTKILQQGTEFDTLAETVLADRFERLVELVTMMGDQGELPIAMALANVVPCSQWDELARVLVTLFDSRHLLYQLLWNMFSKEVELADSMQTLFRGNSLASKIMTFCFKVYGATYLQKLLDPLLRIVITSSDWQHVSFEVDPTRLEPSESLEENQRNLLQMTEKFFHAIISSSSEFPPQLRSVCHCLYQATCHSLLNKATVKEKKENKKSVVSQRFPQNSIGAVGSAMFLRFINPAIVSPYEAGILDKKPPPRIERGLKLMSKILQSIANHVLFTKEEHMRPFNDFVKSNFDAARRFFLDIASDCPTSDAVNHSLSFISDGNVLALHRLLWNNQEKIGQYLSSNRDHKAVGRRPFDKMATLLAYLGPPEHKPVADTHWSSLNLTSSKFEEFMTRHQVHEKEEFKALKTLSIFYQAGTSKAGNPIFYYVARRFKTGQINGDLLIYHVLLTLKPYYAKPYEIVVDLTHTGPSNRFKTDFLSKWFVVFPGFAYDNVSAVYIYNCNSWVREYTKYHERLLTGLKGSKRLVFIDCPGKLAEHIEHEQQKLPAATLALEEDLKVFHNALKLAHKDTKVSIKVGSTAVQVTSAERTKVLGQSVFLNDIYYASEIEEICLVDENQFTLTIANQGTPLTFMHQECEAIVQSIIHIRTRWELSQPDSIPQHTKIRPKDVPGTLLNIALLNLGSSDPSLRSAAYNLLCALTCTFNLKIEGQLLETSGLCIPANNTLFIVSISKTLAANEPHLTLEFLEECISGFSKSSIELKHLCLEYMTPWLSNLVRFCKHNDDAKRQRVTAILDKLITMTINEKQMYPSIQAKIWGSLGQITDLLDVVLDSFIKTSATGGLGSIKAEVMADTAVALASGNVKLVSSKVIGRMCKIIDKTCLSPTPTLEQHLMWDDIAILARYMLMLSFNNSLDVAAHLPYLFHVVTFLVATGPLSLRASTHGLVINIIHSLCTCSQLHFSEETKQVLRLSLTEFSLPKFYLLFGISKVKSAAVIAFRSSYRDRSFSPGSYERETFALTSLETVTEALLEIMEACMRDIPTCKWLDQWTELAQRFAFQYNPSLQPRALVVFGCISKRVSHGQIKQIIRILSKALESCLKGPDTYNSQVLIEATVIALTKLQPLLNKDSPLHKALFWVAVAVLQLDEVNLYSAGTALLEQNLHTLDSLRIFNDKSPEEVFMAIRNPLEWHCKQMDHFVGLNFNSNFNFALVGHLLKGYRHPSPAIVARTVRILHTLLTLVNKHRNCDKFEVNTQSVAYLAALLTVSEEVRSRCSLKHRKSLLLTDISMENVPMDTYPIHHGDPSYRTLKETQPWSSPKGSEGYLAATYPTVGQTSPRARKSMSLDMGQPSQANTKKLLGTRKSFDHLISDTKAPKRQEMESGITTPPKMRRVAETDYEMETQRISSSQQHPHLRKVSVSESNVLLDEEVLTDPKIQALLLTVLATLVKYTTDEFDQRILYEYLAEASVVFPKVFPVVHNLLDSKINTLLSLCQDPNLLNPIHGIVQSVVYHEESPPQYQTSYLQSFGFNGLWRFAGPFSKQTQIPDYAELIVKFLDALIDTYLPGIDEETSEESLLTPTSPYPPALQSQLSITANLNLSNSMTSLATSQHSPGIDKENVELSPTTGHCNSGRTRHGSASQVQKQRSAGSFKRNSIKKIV
# UniProt Q9NVZ3: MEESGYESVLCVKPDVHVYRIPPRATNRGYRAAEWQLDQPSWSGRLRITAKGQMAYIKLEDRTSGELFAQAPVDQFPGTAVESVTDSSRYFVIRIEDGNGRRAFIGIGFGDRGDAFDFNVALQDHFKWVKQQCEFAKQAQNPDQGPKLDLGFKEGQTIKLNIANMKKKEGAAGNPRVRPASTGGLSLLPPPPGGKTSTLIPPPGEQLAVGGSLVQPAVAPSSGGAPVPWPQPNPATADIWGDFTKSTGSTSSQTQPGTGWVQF
# UniProt Q9UKX7: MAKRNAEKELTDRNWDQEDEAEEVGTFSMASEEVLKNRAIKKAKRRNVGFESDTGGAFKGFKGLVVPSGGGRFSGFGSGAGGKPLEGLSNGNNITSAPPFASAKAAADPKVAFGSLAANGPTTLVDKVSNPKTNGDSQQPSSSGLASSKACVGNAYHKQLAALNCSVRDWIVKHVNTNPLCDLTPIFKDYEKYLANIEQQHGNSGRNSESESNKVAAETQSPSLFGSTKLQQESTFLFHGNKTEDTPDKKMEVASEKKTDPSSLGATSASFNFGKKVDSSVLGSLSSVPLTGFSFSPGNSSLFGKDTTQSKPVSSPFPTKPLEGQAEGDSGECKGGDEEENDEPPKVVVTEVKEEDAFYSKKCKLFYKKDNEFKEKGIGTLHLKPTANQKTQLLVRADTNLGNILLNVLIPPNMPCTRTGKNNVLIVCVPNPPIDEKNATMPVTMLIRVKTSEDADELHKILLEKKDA
# UniProt P16083: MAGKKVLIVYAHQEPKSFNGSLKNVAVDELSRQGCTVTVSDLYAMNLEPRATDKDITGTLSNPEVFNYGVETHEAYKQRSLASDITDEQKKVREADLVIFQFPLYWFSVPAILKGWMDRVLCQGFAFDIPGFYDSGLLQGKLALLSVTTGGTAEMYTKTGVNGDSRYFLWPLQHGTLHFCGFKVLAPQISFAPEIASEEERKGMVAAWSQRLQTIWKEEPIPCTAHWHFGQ
# UniProt O14777: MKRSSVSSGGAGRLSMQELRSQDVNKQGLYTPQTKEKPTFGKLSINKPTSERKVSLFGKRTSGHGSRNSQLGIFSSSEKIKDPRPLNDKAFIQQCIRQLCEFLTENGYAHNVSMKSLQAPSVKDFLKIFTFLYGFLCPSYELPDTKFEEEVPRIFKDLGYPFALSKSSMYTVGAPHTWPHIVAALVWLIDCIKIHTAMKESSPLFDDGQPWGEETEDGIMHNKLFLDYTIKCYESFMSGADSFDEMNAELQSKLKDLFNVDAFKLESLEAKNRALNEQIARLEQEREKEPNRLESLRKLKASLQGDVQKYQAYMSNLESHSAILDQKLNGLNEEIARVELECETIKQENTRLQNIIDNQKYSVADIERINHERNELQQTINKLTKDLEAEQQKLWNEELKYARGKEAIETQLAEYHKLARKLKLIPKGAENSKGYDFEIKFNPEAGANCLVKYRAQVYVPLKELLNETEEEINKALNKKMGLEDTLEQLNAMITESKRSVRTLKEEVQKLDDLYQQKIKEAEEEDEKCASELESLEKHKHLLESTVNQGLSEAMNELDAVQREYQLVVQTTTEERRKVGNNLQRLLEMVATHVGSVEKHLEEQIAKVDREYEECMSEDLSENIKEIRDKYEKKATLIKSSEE
# UniProt Q8WVF1: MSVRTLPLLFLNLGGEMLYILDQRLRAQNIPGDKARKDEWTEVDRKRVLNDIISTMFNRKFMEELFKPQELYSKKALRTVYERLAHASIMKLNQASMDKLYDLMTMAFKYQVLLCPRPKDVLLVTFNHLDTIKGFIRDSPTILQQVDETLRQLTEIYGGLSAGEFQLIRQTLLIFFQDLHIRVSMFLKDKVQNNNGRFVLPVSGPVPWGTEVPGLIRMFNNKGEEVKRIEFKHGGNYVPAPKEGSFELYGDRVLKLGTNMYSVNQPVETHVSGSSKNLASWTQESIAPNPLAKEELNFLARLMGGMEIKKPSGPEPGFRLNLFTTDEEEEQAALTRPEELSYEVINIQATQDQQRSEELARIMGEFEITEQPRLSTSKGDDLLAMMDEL
# The other results are listed elsewhere or left out.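 The calls were made as follows: active = dose-dependent thermal stabilisation significant by F-test of dose-response against flat model at 10% FDR; inactive = not significant.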
# Compound: Nc1nc2c(ncn2[C@@H]2O[C@H](COP(=O)(O)OP(=O)(O)OP(=O)(O)O)[C@@H](O)[C@H]2O)c(=O)[nH]1
# Assay: dose-dependent thermal stabilisation call (2D-TPP, DLPTP, 10% FDR) (binary (1 = stabilised)); higher = stabilised by the compound
# Conditions: system: Jurkat gel-filtered lysate; concentration range 1-500 µM
row,Target,dose-dependent thermal stabilisation call
1,NFKBIB (UniProt Q15653),inactive: 0
2,NIT1 (UniProt Q86X76),inactive: 0
3,NPLOC4 (UniProt Q8TAT6),inactive: 0
4,NCOA1 (UniProt Q15788),inactive: 0
5,P3H1 (UniProt Q32P28),active: 1
6,NFKB2 (UniProt Q00653),inactive: 0
7,NUDT3 (UniProt O95989),inactive: 0
8,NFATC2IP (UniProt Q8NCF5),inactive: 0
9,NIPBL (UniProt Q6KC79),inactive: 0
10,NSL1 (UniProt Q96IY1),inactive: 0
11,NELFA (UniProt Q9H3P2),inactive: 0
12,OXSM (UniProt Q9NWU1),inactive: 0
13,N6AMT1 (UniProt Q9Y5N5),active: 1
14,PAFAH1B1 (UniProt P43034),inactive: 0
15,NF1 (UniProt P21359),inactive: 0
16,ORC2 (UniProt Q13416),inactive: 0
17,NBEA (UniProt Q8NFP9),inactive: 0
18,NUB1 (UniProt Q9Y5A7),inactive: 0

row,Target,dose-dependent thermal stabilisation call
1,NECAP2 (UniProt Q9NVZ3),inactive: 0
2,OTUB2 (UniProt Q96DC9),inactive: 0
3,OSBPL9 (UniProt Q96SU4),inactive: 0
4,PACS1 (UniProt Q6VY07),active: 1
5,NARFL (UniProt Q9H6Q4),active: 1
6,PARP4 (UniProt Q9UKK3),inactive: 0
7,OSBPL11 (UniProt Q9BXB4),inactive: 0
8,NME4 (UniProt O00746),active: 1
9,NUP88 (UniProt Q99567),active: 1
10,NUP50 (UniProt Q9UKX7),inactive: 0
11,NQO2 (UniProt P16083),inactive: 0
12,NDC80 (UniProt O14777),inactive: 0
13,NUDT5 (UniProt Q9UKK9),inactive: 0
14,N4BP2 (UniProt Q86UW6),inactive: 0
15,OPLAH (UniProt O14841),inactive: 0
16,OSCP1 (UniProt Q8WVF1),inactive: 0
17,OAS3 (UniProt Q9Y6K5),active: 1
18,NMT1 (UniProt P30419),inactive: 0

# Copied from the list:
# Entry for PARP4 (UniProt Q9UKK3) under dose-dependent thermal stabilisation call: inactive: 0
# Entry for PACS1 (UniProt Q6VY07) under dose-dependent thermal stabilisation call: active: 1
